Results: patent US20050250821A1, “Quaternary ammonium compounds in the treatment of water and as antimicrobial wash” (priority 2004, published 2005)

Assays:
[1] = test system: Candida castellii (field strain); experiment: microbe, parasite or virus in culture
Protocol: (§1) A Petroff Hausser counting chamber was used to determine the level of inoculum.
(§2) An Optimax microtiter plate reader (Molecular Devices, Sunnyvale, Calif.) at 405 nm wavelength was used to measure the optical density of the suspension in each well. Plates were read kinetically over 24 h. The temperature was maintained at 35° C. All results reflect the average optical density measurements of four microtiter wells. […] A 100 μl aliquot of test organism and a 100 μl aliquot of experimental treatment were dispensed into individual microtiter plate wells.

[2] = test system: Salmonella Enteritidis (ATCC 13076); experiment: microbe, parasite or virus in culture
Protocol: as §1, §2

[3] = test system: Staphylococcus aureus (ATCC 25923); conditions: S. aureus
Protocol: as §1, §2

[4] = test system: Aspergillus; experiment: microbe, parasite or virus in culture; conditions: for Inhibition (% of control): 72 h
Description: as §1

[5] = test system: Fusarium; experiment: microbe, parasite or virus in culture; conditions: for Inhibition (% of control): 72 h
Description: as §1

For `CCCCCCCCCCCCCCCC[n+]1ccccc1` [CPC, Cetylpyridinium chloride], the “concentration giving complete growth inhibition” value ([1]; C. castellii, previous experiments) was 100 ppm, the MIC ([1]; Oligophagozyma castellii, read-out: MIC required for complete inhibition) was over 25 µg/mL and the “growth inhibition” value ([2]; S. Enteritidis, 2.5 ppm CPC alone) was “did not inhibit”. The MIC ([2]; Salmonella enterica, ATCC13076|ENTERITIDIS, 24 h, read-out: Minimum Inhibitory Concentration (MIC)) was 10 µg/mL, the “growth inhibition” value ([3]; 2.5 ppm CPC alone) was “did not inhibit” and the “duration of growth inhibition” value ([3]; 2.5 ppm treatment level) was 8 h. For the same molecule, the “concentration that completely inhibited growth” value ([3]; FIG. 2) was 10 ppm, the “Inhibition (% of control)” value ([4]; 500 ppm CPC) was 57.2 % of control and the “Inhibition (% of control)” value ([4]; 1000 ppm CPC) was 100.0 % of control. For the same molecule, the “Inhibition (% of control)” value ([4]; 1500 ppm CPC) was 100.0 % of control, the MIC ([4]; read-out: MIC level) was under 1000 µg/mL and the MIC [5] was over 1500 µg/mL. The “Inhibition (% of control)” value ([5]; 500 ppm CPC) was 61.0 % of control, the “Inhibition (% of control)” value ([5]; 1000 ppm CPC) was 64.3 % of control and the “Inhibition (% of control)” value ([5]; 1500 ppm CPC) was 69.0 % of control.
